Among the data in publication PMC4338441, “Non-catalytic motor domains enable processive movement and functional diversification of the kinesin-14 Kar3” (eLife, 2015) are binding values, retold here.

The assay concerns the target T1, GST-Bim1^FL (budding yeast) (UniProt P40013).
T1 sequence: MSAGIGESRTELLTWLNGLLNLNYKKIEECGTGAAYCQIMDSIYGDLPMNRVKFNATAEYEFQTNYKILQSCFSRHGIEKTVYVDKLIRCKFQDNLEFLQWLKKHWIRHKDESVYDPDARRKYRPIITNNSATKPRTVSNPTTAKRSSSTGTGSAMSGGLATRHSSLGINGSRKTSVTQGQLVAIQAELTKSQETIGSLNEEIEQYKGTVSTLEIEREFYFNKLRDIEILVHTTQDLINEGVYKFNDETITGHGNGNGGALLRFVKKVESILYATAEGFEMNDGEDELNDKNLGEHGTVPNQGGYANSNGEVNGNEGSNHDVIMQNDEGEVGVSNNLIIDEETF
In words: pull-down; 0.1–1 μM GST-tagged bait immobilised on glutathione sepharose; binding partner at a constant 0.5–1 μM; 25 mM Hepes pH 7.2, 250 mM NaCl, 1 mM MgCl2, 1 mM EGTA, 0.5 mM DTT, 0.05% NP-40; 1 hr at 4°C; SDS-PAGE, Coomassie; both purified.

Results are given in words; binding and its absence hold for the method and conditions named. Binding can be weak; no strength is given. Tags and fused reporters may be left off the sequences shown.

Turning to “Cik1–Kar3 complex with the SxIP motif of Cik1 mutated (S. cerevisiae (S288c))”, the binding entry is “binds”.
